Experimental data taken from the supplement of paper PMC10849652.
This is one part of the list.

Amino acid sequences for entries named in this document (tags omitted). A change or cut given only in a name is not applied to a line headed by its entry.
UniProt P49959: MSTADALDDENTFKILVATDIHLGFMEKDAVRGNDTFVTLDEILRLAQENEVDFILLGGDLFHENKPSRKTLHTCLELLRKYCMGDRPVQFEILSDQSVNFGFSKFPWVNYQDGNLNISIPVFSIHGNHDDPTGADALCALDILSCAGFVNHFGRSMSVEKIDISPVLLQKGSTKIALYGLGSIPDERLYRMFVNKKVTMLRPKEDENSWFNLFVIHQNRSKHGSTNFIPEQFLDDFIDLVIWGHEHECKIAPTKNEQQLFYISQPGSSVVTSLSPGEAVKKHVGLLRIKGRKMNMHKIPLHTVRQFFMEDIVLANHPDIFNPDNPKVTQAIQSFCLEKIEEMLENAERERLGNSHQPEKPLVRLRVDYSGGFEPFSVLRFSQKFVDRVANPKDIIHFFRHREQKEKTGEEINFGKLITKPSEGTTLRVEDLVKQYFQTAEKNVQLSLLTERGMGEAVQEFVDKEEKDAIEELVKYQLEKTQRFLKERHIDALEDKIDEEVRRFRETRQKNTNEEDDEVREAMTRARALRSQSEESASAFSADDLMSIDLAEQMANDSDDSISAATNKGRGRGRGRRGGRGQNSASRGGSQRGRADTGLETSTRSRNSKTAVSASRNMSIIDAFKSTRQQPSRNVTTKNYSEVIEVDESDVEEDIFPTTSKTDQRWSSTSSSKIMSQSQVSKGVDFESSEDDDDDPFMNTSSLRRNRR
UniProt O95297: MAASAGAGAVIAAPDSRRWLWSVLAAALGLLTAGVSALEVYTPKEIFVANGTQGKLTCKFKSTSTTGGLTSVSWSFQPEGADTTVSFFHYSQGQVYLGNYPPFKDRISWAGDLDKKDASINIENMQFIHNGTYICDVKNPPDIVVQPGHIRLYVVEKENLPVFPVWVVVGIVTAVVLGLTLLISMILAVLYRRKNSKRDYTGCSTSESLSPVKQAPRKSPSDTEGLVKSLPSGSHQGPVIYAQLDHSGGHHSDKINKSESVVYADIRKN
UniProt Q9NV56, whole entry, looked up: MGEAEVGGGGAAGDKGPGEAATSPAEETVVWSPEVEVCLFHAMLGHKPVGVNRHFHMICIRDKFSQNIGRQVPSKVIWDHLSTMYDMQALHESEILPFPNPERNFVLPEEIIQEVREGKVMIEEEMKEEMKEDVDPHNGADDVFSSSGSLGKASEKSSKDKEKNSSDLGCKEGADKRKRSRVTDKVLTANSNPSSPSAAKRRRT
UniProt Q8TDZ2: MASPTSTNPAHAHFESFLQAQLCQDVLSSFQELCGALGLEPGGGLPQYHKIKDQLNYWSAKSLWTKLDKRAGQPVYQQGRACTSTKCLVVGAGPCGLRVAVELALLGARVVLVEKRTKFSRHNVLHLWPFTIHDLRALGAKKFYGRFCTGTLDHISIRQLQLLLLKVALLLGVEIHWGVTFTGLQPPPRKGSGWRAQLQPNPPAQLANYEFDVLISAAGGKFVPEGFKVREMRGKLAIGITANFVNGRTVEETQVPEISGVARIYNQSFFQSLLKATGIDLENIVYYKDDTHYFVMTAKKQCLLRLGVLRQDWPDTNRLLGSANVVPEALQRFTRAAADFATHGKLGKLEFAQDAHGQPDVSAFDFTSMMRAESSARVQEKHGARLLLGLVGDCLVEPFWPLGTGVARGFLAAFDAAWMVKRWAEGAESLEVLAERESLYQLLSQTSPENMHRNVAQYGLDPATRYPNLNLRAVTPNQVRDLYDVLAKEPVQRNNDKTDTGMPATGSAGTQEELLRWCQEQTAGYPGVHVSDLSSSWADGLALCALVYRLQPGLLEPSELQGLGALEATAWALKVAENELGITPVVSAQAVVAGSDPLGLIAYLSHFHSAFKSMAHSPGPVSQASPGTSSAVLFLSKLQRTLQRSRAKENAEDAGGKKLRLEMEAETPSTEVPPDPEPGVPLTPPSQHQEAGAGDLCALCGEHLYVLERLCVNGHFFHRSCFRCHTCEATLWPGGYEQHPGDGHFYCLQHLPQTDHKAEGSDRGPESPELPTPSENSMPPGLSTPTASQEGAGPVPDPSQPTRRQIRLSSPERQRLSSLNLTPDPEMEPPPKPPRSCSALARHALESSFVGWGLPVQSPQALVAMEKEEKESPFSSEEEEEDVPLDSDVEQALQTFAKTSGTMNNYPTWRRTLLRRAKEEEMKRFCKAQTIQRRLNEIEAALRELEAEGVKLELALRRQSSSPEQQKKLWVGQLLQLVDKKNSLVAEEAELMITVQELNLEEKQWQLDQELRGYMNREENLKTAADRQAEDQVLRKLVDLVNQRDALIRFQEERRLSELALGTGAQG
UniProt P46013: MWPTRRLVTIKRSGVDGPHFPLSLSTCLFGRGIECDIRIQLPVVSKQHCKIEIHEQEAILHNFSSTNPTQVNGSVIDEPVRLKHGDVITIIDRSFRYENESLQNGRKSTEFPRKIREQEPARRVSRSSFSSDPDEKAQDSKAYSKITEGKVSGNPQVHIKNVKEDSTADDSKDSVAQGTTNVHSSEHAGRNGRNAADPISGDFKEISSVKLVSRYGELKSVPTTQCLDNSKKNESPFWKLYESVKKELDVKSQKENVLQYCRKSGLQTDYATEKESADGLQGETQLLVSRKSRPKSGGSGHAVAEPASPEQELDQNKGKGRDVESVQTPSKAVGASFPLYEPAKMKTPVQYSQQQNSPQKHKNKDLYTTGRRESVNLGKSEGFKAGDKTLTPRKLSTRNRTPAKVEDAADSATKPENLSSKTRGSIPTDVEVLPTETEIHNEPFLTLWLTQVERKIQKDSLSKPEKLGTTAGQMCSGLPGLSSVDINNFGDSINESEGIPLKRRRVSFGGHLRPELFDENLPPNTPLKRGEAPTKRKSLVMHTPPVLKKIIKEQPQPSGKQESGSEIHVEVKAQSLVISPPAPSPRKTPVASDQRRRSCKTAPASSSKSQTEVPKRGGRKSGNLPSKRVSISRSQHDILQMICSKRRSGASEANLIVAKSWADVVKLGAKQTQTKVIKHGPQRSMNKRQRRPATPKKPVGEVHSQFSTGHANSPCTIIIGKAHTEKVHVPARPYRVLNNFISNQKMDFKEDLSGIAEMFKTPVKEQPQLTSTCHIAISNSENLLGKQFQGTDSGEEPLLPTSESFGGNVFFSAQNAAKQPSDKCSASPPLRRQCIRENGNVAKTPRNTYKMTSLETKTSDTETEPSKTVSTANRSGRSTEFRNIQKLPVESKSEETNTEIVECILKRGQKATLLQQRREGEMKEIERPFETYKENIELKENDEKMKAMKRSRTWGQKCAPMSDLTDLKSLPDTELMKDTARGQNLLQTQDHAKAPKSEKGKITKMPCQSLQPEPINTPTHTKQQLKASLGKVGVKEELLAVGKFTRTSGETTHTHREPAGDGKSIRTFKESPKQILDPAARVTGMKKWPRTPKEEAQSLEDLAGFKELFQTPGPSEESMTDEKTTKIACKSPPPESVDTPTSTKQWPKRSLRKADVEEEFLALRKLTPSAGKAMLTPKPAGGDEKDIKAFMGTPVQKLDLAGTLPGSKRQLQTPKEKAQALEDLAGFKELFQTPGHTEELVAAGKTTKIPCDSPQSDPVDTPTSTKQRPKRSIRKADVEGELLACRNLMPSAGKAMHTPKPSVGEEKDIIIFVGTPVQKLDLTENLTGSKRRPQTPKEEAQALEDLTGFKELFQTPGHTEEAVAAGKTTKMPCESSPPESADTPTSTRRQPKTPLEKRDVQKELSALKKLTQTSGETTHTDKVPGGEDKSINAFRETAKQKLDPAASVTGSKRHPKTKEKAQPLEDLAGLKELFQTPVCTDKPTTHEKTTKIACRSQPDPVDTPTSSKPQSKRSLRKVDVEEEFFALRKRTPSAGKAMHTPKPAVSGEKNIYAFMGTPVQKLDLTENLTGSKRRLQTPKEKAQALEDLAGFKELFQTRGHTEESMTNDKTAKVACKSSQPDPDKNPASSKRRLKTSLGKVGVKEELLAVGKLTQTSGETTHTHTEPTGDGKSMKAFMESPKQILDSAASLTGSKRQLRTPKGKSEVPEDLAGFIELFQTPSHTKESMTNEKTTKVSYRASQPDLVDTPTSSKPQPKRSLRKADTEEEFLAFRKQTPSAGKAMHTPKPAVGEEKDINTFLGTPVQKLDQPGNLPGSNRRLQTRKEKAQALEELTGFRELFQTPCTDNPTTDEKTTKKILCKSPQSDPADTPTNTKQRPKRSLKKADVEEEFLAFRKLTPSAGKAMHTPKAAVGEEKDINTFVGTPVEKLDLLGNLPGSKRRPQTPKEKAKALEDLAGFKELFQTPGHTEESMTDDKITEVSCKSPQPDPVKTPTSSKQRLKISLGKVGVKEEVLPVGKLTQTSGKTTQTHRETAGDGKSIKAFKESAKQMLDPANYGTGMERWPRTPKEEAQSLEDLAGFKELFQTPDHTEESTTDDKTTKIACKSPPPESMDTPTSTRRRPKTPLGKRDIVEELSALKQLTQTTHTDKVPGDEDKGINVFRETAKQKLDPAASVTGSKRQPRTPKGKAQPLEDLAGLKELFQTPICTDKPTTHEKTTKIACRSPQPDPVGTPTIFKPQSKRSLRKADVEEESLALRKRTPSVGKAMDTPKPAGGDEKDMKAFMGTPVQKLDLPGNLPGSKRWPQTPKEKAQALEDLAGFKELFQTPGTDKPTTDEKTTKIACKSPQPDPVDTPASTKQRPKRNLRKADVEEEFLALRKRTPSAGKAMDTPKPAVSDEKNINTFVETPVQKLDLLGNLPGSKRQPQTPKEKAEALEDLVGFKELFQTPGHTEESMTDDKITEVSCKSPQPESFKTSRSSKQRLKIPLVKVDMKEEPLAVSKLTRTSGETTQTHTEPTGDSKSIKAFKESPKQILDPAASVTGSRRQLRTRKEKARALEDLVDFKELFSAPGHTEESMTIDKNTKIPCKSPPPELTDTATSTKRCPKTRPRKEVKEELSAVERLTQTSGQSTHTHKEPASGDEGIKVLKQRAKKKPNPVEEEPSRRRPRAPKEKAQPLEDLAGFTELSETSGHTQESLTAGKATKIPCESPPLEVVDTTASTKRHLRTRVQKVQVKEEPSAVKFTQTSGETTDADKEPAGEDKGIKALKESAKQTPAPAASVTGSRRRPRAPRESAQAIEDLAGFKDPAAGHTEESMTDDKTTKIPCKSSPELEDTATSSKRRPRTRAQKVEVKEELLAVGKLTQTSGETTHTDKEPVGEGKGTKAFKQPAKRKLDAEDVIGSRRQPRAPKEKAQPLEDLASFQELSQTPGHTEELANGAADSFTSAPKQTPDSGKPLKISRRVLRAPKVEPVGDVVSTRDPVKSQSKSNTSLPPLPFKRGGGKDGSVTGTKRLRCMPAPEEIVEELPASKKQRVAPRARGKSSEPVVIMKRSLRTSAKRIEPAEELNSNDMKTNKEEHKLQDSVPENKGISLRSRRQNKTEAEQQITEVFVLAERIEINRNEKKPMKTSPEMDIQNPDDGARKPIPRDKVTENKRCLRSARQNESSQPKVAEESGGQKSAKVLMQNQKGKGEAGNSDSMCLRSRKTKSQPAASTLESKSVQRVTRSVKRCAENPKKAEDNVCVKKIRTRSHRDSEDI
UniProt Q99797: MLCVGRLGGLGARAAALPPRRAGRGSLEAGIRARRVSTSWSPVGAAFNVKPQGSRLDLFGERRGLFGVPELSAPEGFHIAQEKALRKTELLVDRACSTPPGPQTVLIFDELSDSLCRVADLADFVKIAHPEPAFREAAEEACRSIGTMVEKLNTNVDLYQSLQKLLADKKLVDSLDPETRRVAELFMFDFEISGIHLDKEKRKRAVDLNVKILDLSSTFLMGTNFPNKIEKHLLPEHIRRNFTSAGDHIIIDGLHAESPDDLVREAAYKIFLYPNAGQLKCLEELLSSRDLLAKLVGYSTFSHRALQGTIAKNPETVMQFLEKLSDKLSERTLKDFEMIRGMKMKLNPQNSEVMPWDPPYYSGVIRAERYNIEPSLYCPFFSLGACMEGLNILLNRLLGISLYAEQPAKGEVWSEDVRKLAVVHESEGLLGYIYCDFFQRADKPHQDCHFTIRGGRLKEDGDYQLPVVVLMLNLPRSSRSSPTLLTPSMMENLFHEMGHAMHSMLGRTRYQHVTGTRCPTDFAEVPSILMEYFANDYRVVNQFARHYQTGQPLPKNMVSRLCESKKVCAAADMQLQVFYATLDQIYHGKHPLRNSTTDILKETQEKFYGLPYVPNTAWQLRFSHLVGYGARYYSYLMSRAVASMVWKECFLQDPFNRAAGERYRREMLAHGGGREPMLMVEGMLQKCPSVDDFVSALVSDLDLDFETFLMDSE
UniProt Q9BVC4, whole entry, looked up: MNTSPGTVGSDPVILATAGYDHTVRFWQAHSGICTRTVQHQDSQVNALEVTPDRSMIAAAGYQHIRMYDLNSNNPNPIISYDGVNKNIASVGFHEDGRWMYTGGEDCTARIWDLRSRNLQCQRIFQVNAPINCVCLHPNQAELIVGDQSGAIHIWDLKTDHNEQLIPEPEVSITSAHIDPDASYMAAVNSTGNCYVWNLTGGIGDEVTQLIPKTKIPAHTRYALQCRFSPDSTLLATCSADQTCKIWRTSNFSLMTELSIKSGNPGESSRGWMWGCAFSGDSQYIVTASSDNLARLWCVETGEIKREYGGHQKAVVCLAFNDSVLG

Assays:
Assay in all cases: log2 fold change, soluble protein after heating vs DMSO (PISA); higher = thermal stabilisation; K562 cells, 10 uM, 30 min; active = over 0.2 and 3.5 SD of the protein, either way, in both replicates (recomputed)
[1] = compound: COC1=CC=C(C=C1)CN2C=CC3=C2C=C(C=C3)C(=O)NO
How it was run: (§1)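 Quantification of soluble protein used TMTpro 16plex LC-MS/MS, with channel sums equalised. Samples were the supernatant after 21,000xg for 90 min of pooled aliquots from K562 cells (2×10^6 cells/mL) treated with 10 μM compound for 30 min, heated for 3 min over 48°C-58°C, and extracted in PBS with 0.5% NP-40 at 4°C. Values, from duplicates, describe thermal stability against control samples on a log2 fold-change scale.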

[2] = compound: CON(C)C(=O)N1N=C(c2cc(F)ccc2F)S[C@@]1(CCCN)c1ccccc1 [filanesib]
How it was run: as §1

[3] = compound: CO[C@H]1C[C@@H]2CC[C@@H](C)[C@@](O)(O2)C(=O)C(=O)N2CCCC[C@H]2C(=O)O[C@H]([C@H](C)C[C@@H]2CC[C@H](n3cnnn3)[C@H](OC)C2)CC(=O)[C@H](C)/C=C(\C)[C@@H](O)[C@@H](OC)C(=O)[C@H](C)C[C@H](C)/C=C/C=C/C=C/1C [zotarolimus]
How it was run: as §1

[4] = compound: COc1cc(C(=O)O)ccc1NC(=O)[C@@H]1N[C@@H](CC(C)(C)C)[C@](C#N)(c2ccc(Cl)cc2F)[C@H]1c1cccc(Cl)c1F [idasanutlin]
How it was run: as §1

[5] = compound: COc1cc(Nc2ncc3c(n2)-c2ccc(Cl)cc2C(c2c(F)cccc2OC)=NC3)ccc1C(=O)O [alisertib]
How it was run: as §1

[6] = compound: COc1cc2nc(-c3cc(F)ccc3O)nc(N[C@@H]3CNC[C@H]3C(C)(C)O)c2cc1OC
How it was run: as §1

[7] = compound: COc1cc2ncnc(Nc3ccc(F)c(Cl)c3)c2cc1OCCCN1CCOCC1 [gefitinib]
How it was run: as §1

[8] = compound: COc1cccc2cc(-c3nc([C@H]4CC[C@H](C(=O)O)CC4)n4ncnc(N)c34)[nH]c12
How it was run: as §1

[9] = compound: CS(=O)(=O)CCNCc1ccc(-c2ccc3ncnc(Nc4ccc(OCc5cccc(F)c5)c(Cl)c4)c3c2)o1 [lapatinib]
How it was run: as §1

[10] = compound: CS(=O)(=O)N1CCN(Cc2cc3nc(-c4cccc5[nH]ncc45)nc(N4CCOCC4)c3s2)CC1 [pictilisib]
How it was run: as §1

Measured: log2 fold change

MPG (UniProt P29372)
inactive: [1] 0.156 | [2] 0.039 | [3] -0.047 | [4] 0.041 | [5] -0.078 | [6] -0.039 | [7] 0.004 | [8] -0.041 | [9] 0.037 | [10] -0.02

MPHOSPH6 (UniProt Q99547)
inactive: [1] -0.078 | [2] 0.126 | [3] 0.064 | [4] 0.102 | [5] 0.455 | [6] -0.018 | [7] 0.023 | [8] -0.047 | [9] 0.02 | [10] -0.017

MITD1 (UniProt Q8WV92)
inactive: [1] 0.059 | [2] 0.004 | [3] -0.068 | [4] -0.058 | [5] 0.018 | [6] -0.013 | [7] -0.018 | [8] 0.063 | [9] 0.004 | [10] -0.121

MRPL12 (UniProt P52815)
inactive: [1] -0.109 | [2] 0.014 | [3] 0.065 | [4] -0.001 | [5] -0.055 | [6] -0.19 | [7] 0.012 | [8] 0.003 | [9] 0 | [10] 0.127

MRE11 isoform 3 (UniProt P49959)
inactive: [1] -0.088 | [2] 0.004 | [3] 0.01 | [4] 0.04 | [5] -0.045 | [6] 0.01 | [7] 0.044 | [8] -0.019 | [9] 0.02 | [10] -0.028

MRFAP1 (UniProt Q9Y605)
inactive: [1] 0.015 | [2] -0.012 | [3] -0.018 | [4] 0.173 | [5] -0.435 | [6] -0.154 | [7] -0.036 | [8] 0.157 | [9] -0.093 | [10] -0.01

MIER1 isoform 12 (UniProt Q8N108)
inactive: [1] -0.041 | [2] -0.067 | [3] -0.015 | [4] -0.04 | [5] -0.023 | [6] -0.039 | [7] -0.001 | [8] 0.014 | [9] 0.011 | [10] -0.066

MPZL1 (UniProt O95297)
inactive: [1] -0.035 | [2] 0.095 | [3] 0.014 | [4] 0.021 | [5] -0.06 | [6] 0.111 | [7] 0.027 | [8] 0.06 | [9] -0.092 | [10] -0.029

MRPL19 (UniProt P49406)
inactive: [1] -0.044 | [2] 0.17 | [3] 0.163 | [4] -0.096 | [5] -0.034 | [6] -0.067 | [7] -0.034 | [8] -0.137 | [9] 0.112 | [10] -0.011

MMTAG2 (UniProt Q9BU76)
inactive: [1] -0.055 | [2] 0.47 | [3] 0.037 | [4] 0.208 | [5] -0.253 | [6] -0.001 | [7] -0.131 | [8] -0.161 | [9] 0.122 | [10] -0.017

MRM1 (UniProt Q6IN84)
inactive: [1] -0.082 | [2] 0.174 | [3] -0.056 | [4] 0.089 | [5] -0.141 | [6] -0.096 | [7] -0.095 | [8] -0.032 | [9] 0.081

MRPL34 (UniProt Q9BQ48)
inactive: [1] -0.074 | [2] 0.081 | [3] 0.072 | [4] 0.029 | [5] -0.089 | [6] -0.045 | [7] -0.105 | [8] -0.164 | [9] 0.028 | [10] -0.102

Fetched one by one from above, 2 records:
MRPL19 (UniProt P49406)
inactive: [1] -0.044 | [2] 0.17 | [3] 0.163 | [4] -0.096 | [5] -0.034 | [6] -0.067 | [7] -0.034 | [8] -0.137 | [9] 0.112 | [10] -0.011

MPZL1 (UniProt O95297)
inactive: [1] -0.035 | [2] 0.095 | [3] 0.014 | [4] 0.021 | [5] -0.06 | [6] 0.111 | [7] 0.027 | [8] 0.06 | [9] -0.092 | [10] -0.029

(continued)

MPLKIP (UniProt Q8TAP9)
inactive: [1] -0.025 | [2] 0.096 | [3] -0.04 | [4] 0.034 | [5] 0.003 | [6] -0.059 | [7] -0.011 | [8] 0.049 | [9] 0.04 | [10] 0.101

MOCOS (UniProt Q96EN8)
inactive: [1] -0.177 | [2] 0.01 | [3] -0.06 | [4] -0.151 | [5] 0.011 | [6] 0.009 | [7] 0.009 | [8] 0.116 | [9] 0.021 | [10] 0.016

MRPL55 isoform 2 (UniProt Q7Z7F7)
inactive: [1] -0.048 | [2] 0.081 | [3] 0.054 | [4] -0.077 | [5] 0.024 | [6] -0.048 | [7] -0.108 | [8] -0.075 | [9] 0.175 | [10] 0.117

MICALL2 (UniProt Q8IY33)
inactive: [1] 0.139 | [2] -0.217 | [3] 0.026 | [4] 0.086 | [5] -0.072 | [6] -0.217 | [7] 0.14 | [8] 0.053 | [9] 0 | [10] 0.053

MMUT (UniProt P22033)
inactive: [1] -0.029 | [2] -0.049 | [3] 0.012 | [4] -0.046 | [5] 0.042 | [6] 0.007 | [7] 0.025 | [8] 0.011 | [9] 0.021 | [10] 0.039

MOV10 (UniProt Q9HCE1)
inactive: [1] -0.048 | [2] 0.155 | [3] -0.005 | [4] 0.071 | [5] -0.073 | [6] -0.021 | [7] 0.002 | [8] -0.1 | [9] 0.073 | [10] -0.048

MRPL21 (UniProt Q7Z2W9)
inactive: [1] -0.069 | [2] 0.123 | [3] 0.102 | [4] -0.083 | [5] -0.11 | [6] -0.001 | [7] -0.07 | [8] -0.054 | [9] 0.167 | [10] -0.027

MRGBP (UniProt Q9NV56)
inactive: [1] 0.012 | [2] -0.009 | [3] 0.065 | [4] 0.026 | [5] -0.148 | [6] -0.064 | [7] 0.042 | [8] 0.033 | [9] 0.057 | [10] -0.075

MRPL32 (UniProt Q9BYC8)
inactive: [1] 0.049 | [2] 0.166 | [3] -0.086 | [4] 0.17 | [5] -0.024 | [6] -0.087 | [7] -0.038 | [8] -0.099 | [9] 0.111 | [10] -0.017

MRPL20 (UniProt Q9BYC9)
inactive: [1] 0.019 | [2] 0.169 | [3] 0.16 | [4] -0.08 | [5] -0.094 | [6] 0.052 | [7] -0.019 | [8] -0.058 | [9] 0.103 | [10] 0.018

MRPL11 (UniProt Q9Y3B7)
inactive: [1] 0.015 | [2] 0.139 | [3] 0.116 | [4] -0.088 | [5] -0.044 | [6] 0 | [7] -0.054 | [8] -0.095 | [9] 0.168 | [10] -0.044

MICAL1 isoform 4 (UniProt Q8TDZ2)
inactive: [1] -0.077 | [2] -0.158 | [3] 0.06 | [4] -0.139 | [5] -0.229 | [6] -0.046 | [7] 0.061 | [8] -0.128 | [9] 0.128

MKI67 (UniProt P46013)
inactive: [1] -0.06 | [2] 0.165 | [3] -0.022 | [4] 0.205 | [5] -0.027 | [6] -0.117 | [7] 0.073 | [8] 0.02 | [9] 0.044 | [10] -0.141

MIPEP (UniProt Q99797)
inactive: [1] 0 | [2] -0.07 | [3] 0.017 | [4] 0.007 | [5] -0.017 | [6] 0.021 | [7] 0.038 | [8] -0.002 | [9] 0.007 | [10] 0.046

MRPL17 (UniProt Q9NRX2)
inactive: [1] -0.074 | [2] 0.222 | [3] 0.027 | [4] -0.07 | [5] -0.115 | [6] -0.062 | [7] -0.112 | [8] -0.071 | [9] 0.13 | [10] -0.023

MLST8 (UniProt Q9BVC4)
inactive: [1] 0.1 | [2] -0.206 | [3] -0.12 | [4] -0.154 | [5] 0.019 | [6] 0.055 | [7] -0.041 | [8] -0.081 | [9] -0.039

MICAL3 (UniProt Q7RTP6)
inactive: [1] 0.027 | [2] -0.106 | [3] -0.08 | [4] 0.057 | [5] 0.073 | [6] 0.118 | [7] 0.058 | [8] -0.032 | [9] -0.073 | [10] 0.092

MRPL41 (UniProt Q8IXM3)
inactive: [1] -0.075 | [2] 0.213 | [3] 0.083 | [4] -0.085 | [5] 0.093 | [6] -0.003 | [7] -0.135 | [8] -0.112 | [9] 0.145 | [10] 0.065
